# The supplement of paper PMC8728848
# This is one part of the list.
# B1: SspB C123 (Streptococcus gordonii), Q54186 (protein)
# chain: MAHFHYSSLLAQPQINKEIKNEDGVDIDRTLVAKQSIGKFELKTEALTAGRPKTTSFVLVDPLPTGYKFDLDATKAASTGFDTTYDEASHTVTFKATDETLATYNADLTKPVETLHPTVVGRVLNDGATYTNNFTLTVNDAYGIKSNVVRVTTPGKPNDPDNPNNNYIKPTKVNKNKEGLNIDGKEVLAGSTNYYELTWDLDQYKGDKSSKEAIQNGFYYVDDYPEEALDVRPDLVKVADEKGNQVSGVSVQQYDSLEAAPKKVQDLLKKANITVKGAFQLFSADNPEEFYKQYVSTGTSLVITDPMTVKSEFGKTGGKYENKAYQIDFGNGYATEVVVNNVPKITPKKDVTVSLDPTSENLDGQTVQLYQTFNYRLIGGFIPQNHSEELEDYSFVDDYDQAGDQYTGNYKTFSSLNLTMKDGSVIKAGTDLTSQTTAETDATNGIVTVRFKEDFLQKISLDSPFQAETYLQMRRIAIGTFENTYVNTVNKVAYASAAALEHHHHHH
# Tests used:
# Experiment in all cases: glycan array binding signal (z-score within array); higher = stronger binding
# Conditions in all cases: glycan notation: IUPAC condensed, linker removed
# [1] = target: Gal(a1-3)[Gal(a1-4)]Gal(b1-4)GlcNAc
# Outline: (§1)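 The Consortium for Functional Glycomics database supplied 3228 glycan arrays, of which those lacking an available protein sequence were dropped. The binding signal, a within-array Z-score, was averaged across arrays of the same protein sequence and across linkers. Negative scores can be read as non-binding.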
# [2] = target: Gal(a1-4)Gal(b1-3)GlcNAc(b1-2)Man(a1-3)[Gal(a1-4)Gal(b1-3)GlcNAc(b1-2)Man(a1-6)]Man(b1-4)GlcNAc(b1-4)GlcNAc
# Outline: as §1
# Gal(a1-4)Gal(b1-4)Glc = target: Gal(a1-4)Gal(b1-4)Glc
# Outline: as §1
# Gal(a1-4)Gal(b1-4)GlcNAc = target: Gal(a1-4)Gal(b1-4)GlcNAc
# Outline: as §1
# [3] = target: Gal(a1-4)Gal(b1-4)GlcNAc(b1-2)Man(a1-3)[Gal(a1-4)Gal(b1-4)GlcNAc(b1-2)Man(a1-6)]Man(b1-4)GlcNAc(b1-4)GlcNAc
# Outline: as §1
# [4] = target: Gal(a1-4)Gal(b1-4)GlcNAc(b1-3)Gal(b1-4)Glc
# Outline: as §1
# Gal(a1-4)GlcNAc = target: Gal(a1-4)GlcNAc
# Outline: as §1
# Gal(a1-6)Glc = target: Gal(a1-6)Glc
# Outline: as §1
# Gal(b1-2)Gal = target: Gal(b1-2)Gal
# Outline: as §1
# Gal(b1-3)Gal = target: Gal(b1-3)Gal
# Outline: as §1
# Gal(b1-3)Gal(b1-4)GlcNAc = target: Gal(b1-3)Gal(b1-4)GlcNAc
# Outline: as §1
# Gal(b1-3)GalNAc = target: Gal(b1-3)GalNAc
# Outline: as §1
# [5] = target: Gal(b1-3)GalNAc(a1-3)[Fuc(a1-2)]Gal(b1-4)Glc
# Outline: as §1
# [6] = target: Gal(b1-3)GalNAc(a1-3)[Fuc(a1-2)]Gal(b1-4)GlcNAc
# Outline: as §1
# Gal(b1-3)GalNAc(b1-3)Gal = target: Gal(b1-3)GalNAc(b1-3)Gal
# Outline: as §1
# [7] = target: Gal(b1-3)GalNAc(b1-3)Gal(a1-4)Gal(b1-4)Glc
# Outline: as §1
# [8] = target: Gal(b1-3)GalNAc(b1-4)Gal(b1-4)Glc
# Outline: as §1
# [9] = target: Gal(b1-3)GalNAc(b1-4)[Neu5Ac(a2-3)]Gal(b1-4)Glc
# Outline: as §1
# Gal(b1-3)GlcNAc = target: Gal(b1-3)GlcNAc
# Outline: as §1
# [10] = target: Gal(b1-3)GlcNAc(a1-3)Gal(b1-4)GlcNAc
# Outline: as §1
# [11] = target: Gal(b1-3)GlcNAc(a1-6)Gal(b1-4)GlcNAc
# Outline: as §1
# Gal(b1-3)GlcNAc(b1-2)Man = target: Gal(b1-3)GlcNAc(b1-2)Man
# Outline: as §1
# [12] = target: Gal(b1-3)GlcNAc(b1-2)Man(a1-3)[Gal(b1-3)GlcNAc(b1-2)Man(a1-6)]Man(b1-4)GlcNAc(b1-4)GlcNAc
# Outline: as §1
# [13] = target: Gal(b1-3)GlcNAc(b1-2)Man(a1-3)[Gal(b1-3)GlcNAc(b1-2)Man(a1-6)]Man(b1-4)GlcNAc(b1-4)[Fuc(a1-6)]GlcNAc
# Outline: as §1
# [14] = target: Gal(b1-3)GlcNAc(b1-2)Man(a1-3)[GlcNAc(b1-4)][Gal(b1-3)GlcNAc(b1-2)Man(a1-6)]Man(b1-4)GlcNAc(b1-4)GlcNAc
# Outline: as §1
# [15] = target: Gal(b1-3)GlcNAc(b1-2)[Gal(b1-3)GlcNAc(b1-6)]Man(a1-6)[Gal(b1-3)GlcNAc(b1-2)Man(a1-3)]Man(b1-4)GlcNAc(b1-4)GlcNAc
# Outline: as §1
# [16] = target: Gal(b1-3)GlcNAc(b1-3)Gal(b1-3)GlcNAc
# Outline: as §1
# [17] = target: Gal(b1-3)GlcNAc(b1-3)Gal(b1-4)Glc
# Outline: as §1
# [18] = target: Gal(b1-3)GlcNAc(b1-3)Gal(b1-4)GlcNAc
# Outline: as §1
# [19] = target: Gal(b1-3)GlcNAc(b1-3)Gal(b1-4)GlcNAc(b1-2)Man(a1-3)[Gal(b1-3)GlcNAc(b1-3)Gal(b1-4)GlcNAc(b1-2)Man(a1-6)]Man(b1-4)GlcNAc(b1-4)GlcNAc
# Outline: as §1
# [20] = target: Gal(b1-3)GlcNAc(b1-3)Gal(b1-4)GlcNAc(b1-2)[Gal(b1-3)GlcNAc(b1-3)Gal(b1-4)GlcNAc(b1-6)]Man(a1-6)[Gal(b1-3)GlcNAc(b1-3)Gal(b1-4)GlcNAc(b1-2)Man(a1-3)]Man(b1-4)GlcNAc(b1-4)[Fuc(a1-6)]GlcNAc
# Outline: as §1
# [21] = target: Gal(b1-3)GlcNAc(b1-3)Gal(b1-4)GlcNAc(b1-3)Gal(b1-4)GlcNAc(b1-2)[Gal(b1-3)GlcNAc(b1-3)Gal(b1-4)GlcNAc(b1-3)Gal(b1-4)GlcNAc(b1-6)]Man(a1-6)[Gal(b1-3)GlcNAc(b1-3)Gal(b1-4)GlcNAc(b1-3)Gal(b1-4)GlcNAc(b1-2)Man(a1-3)]Man(b1-4)GlcNAc(b1-4)[Fuc(a1-6)]GlcNAc
# Outline: as §1
# [22] = target: Gal(b1-3)GlcNAc(b1-3)Gal(b1-4)GlcNAc(b1-6)[Gal(b1-3)GlcNAc(b1-3)]Gal(b1-4)Glc
# Outline: as §1
# [23] = target: Gal(b1-3)GlcNAc(b1-3)Gal(b1-4)[Fuc(a1-3)]GlcNAc
# Outline: as §1
# [24] = target: Gal(b1-3)GlcNAc(b1-3)Gal(b1-4)[Fuc(a1-3)]GlcNAc(b1-6)[Gal(b1-3)GlcNAc(b1-3)]Gal(b1-4)Glc
# Outline: as §1
# [25] = target: Gal(b1-3)GlcNAc(b1-3)GalNAc
# Outline: as §1
# [26] = target: Gal(b1-3)GlcNAc(b1-6)Gal(b1-4)GlcNAc
# Outline: as §1
# [27] = target: Gal(b1-3)GlcNAc(b1-6)GalNAc
# Outline: as §1
binder,measurement,setting,value
B1,glycan array binding signal (z-score),[1],1.5
same,glycan array binding signal (z-score),[2],-1.06
same,glycan array binding signal (z-score),Gal(a1-4)Gal(b1-4)Glc,0.734
same,glycan array binding signal (z-score),Gal(a1-4)Gal(b1-4)GlcNAc,0.07
same,glycan array binding signal (z-score),[3],0.315
same,glycan array binding signal (z-score),[4],-0.079
same,glycan array binding signal (z-score),Gal(a1-4)GlcNAc,-0.961
same,glycan array binding signal (z-score),Gal(a1-6)Glc,-0.129
same,glycan array binding signal (z-score),Gal(b1-2)Gal,-0.199
same,glycan array binding signal (z-score),Gal(b1-3)Gal,1.54
same,glycan array binding signal (z-score),Gal(b1-3)Gal(b1-4)GlcNAc,-1.16
same,glycan array binding signal (z-score),Gal(b1-3)GalNAc,-0.084
same,glycan array binding signal (z-score),[5],-0.787
same,glycan array binding signal (z-score),[6],-0.075
same,glycan array binding signal (z-score),Gal(b1-3)GalNAc(b1-3)Gal,0.717
same,glycan array binding signal (z-score),[7],-0.876
same,glycan array binding signal (z-score),[8],-1.1
same,glycan array binding signal (z-score),[9],0.854
same,glycan array binding signal (z-score),Gal(b1-3)GlcNAc,-0.389
same,glycan array binding signal (z-score),[10],-1.2
same,glycan array binding signal (z-score),[11],-0.134
same,glycan array binding signal (z-score),Gal(b1-3)GlcNAc(b1-2)Man,2.04
same,glycan array binding signal (z-score),[12],0.755
same,glycan array binding signal (z-score),[13],1.37
same,glycan array binding signal (z-score),[14],0.308
same,glycan array binding signal (z-score),[15],0.411
same,glycan array binding signal (z-score),[16],-0.569
same,glycan array binding signal (z-score),[17],0.516
same,glycan array binding signal (z-score),[18],-0.047
same,glycan array binding signal (z-score),[19],1.85
same,glycan array binding signal (z-score),[20],0.355
same,glycan array binding signal (z-score),[21],1.44
same,glycan array binding signal (z-score),[22],-1.72
same,glycan array binding signal (z-score),[23],-1.43
same,glycan array binding signal (z-score),[24],-0.979
same,glycan array binding signal (z-score),[25],0.084
same,glycan array binding signal (z-score),[26],-0.303
same,glycan array binding signal (z-score),[27],-0.435

# 3 neighbouring entries from above, quoted:
binder,measurement,setting,value
B1,glycan array binding signal (z-score),[4],-0.079
same,glycan array binding signal (z-score),Gal(a1-4)GlcNAc,-0.961
same,glycan array binding signal (z-score),Gal(a1-6)Glc,-0.129
